# Primary screen of a compound library

Sequences of proteins named here, by UniProt entry; tags and fusion partners are left off.
UniProt E9BF75, entry or part of it: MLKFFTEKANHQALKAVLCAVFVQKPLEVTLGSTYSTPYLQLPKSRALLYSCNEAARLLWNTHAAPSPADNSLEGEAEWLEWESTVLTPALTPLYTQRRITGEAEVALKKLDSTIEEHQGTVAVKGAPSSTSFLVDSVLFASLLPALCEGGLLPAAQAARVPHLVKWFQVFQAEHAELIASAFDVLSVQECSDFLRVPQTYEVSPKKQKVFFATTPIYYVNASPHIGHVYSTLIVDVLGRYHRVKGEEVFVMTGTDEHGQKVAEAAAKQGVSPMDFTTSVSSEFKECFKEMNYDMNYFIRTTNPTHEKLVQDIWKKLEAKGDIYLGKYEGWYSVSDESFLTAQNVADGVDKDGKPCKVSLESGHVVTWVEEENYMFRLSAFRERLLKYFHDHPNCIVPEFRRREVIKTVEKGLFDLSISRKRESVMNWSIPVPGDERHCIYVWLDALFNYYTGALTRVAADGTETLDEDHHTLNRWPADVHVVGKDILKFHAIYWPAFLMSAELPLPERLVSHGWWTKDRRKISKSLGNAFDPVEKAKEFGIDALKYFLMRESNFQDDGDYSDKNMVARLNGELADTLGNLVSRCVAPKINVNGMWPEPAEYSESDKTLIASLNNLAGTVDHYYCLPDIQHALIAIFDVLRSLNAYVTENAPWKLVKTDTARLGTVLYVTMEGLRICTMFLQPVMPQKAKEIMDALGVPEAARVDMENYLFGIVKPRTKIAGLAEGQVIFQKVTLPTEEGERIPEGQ

The values are deposited in ChEMBL (CHEMBL3988442, “University of Dundee, Small-Polar-MMV Screening Library” (2021)).

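Primary screen of methionyl-tRNA synthetase; the read-out is not stated. Target: Methionyl-tRNA synthetase (putative), Leishmania donovani (UniProt E9BF75). The test concentration is not given. Values are per cent inhibition. About 68,000 compounds were tested under these conditions; 0.035% (about 24) showed 50% or more at least once.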

All values are in %. The record does not define 0% and 100%; most values in the screen are far below 50% and negative numbers occur (in some assays of this library far below -100). Compounds were drawn at random from those tested, without regard to their results.

| # | structure | Inhibition |
|---|---|---|
| 1 | `Cc1cnc(N2CCOC3(CCCN(c4ncccn4)C3)C2)nc1` (stereo unspecified) | 8.711% |
| 2 | `Cc1noc(CCNC(=O)NCc2ccc(OC3CCCC3)cc2)n1` | -0.361% |
| 3 | `Cc1ccc(C(=O)N2CC(C)(C)[C@@](C)(O)C2)cc1N1CCNC1=O` | 16.2% |
| 4 | `COCc1nc(C(=O)N2CCCCC2Cn2cccn2)cs1` (stereo unspecified) | 5.512% |
| 5 | `CN(C)C(=O)c1n[nH]c2c1CN(Cc1nccs1)CC2` | 1.031% |
| 6 | `Cc1cc(C)c(CNC(=O)N2CCN(c3ccccn3)CC2)c(=O)[nH]1` | 8.947% |
| 7 | `Cc1cccc(SC2CCN(C(=O)CCNS(C)(=O)=O)CC2)c1` | 18.59% |
| 8 | `CCc1cc(N2CC(N3CCCCC3C)C2)n2nccc2n1` (stereo unspecified) | 3.069% |
| 9 | `Cc1cccc(C)c1NC(=O)c1n[nH]c(-n2cnnc2)n1` | 11.65% |
| 10 | `FC(F)(F)C1CCc2nnc(CNCc3cccs3)n2C1` (stereo unspecified) | 5.46% |
| 11 | `CCCN1C[C@H]2CC[C@@H]1CN(Cc1ccc(-n3cccn3)cc1)C2` | 22.18% |
| 12 | `Cc1cc(C)c(CNC(=O)NCCNc2ccccn2)c(=O)[nH]1` | 14.03% |
| 13 | `CSCCC(O)C(=O)N1CCC(OCc2cccnc2)CC1` (stereo unspecified) | -3.093% |
| 14 | `O=C1CCC2(CCN(Cc3nccs3)CC2)CN1CCCO` | 10.08% |
| 15 | `c1cncc(CN2CC[C@@H]3O[C@H](COCCN4CCCC4)CC[C@@H]32)c1` | 14.72% |
| 16 | `O=C(CCc1nccs1)N1CCN(c2ccccc2F)CC1` | -0.4695% |
| 17 | `Cc1noc(C)c1CN1CCc2ncnc(-c3ccc(F)cc3)c2CC1` | 20.67% |
| 18 | `COc1ccc(NC(=O)c2ccc(CN3CC[C@H](O)C3)cc2)c(OC)n1` | 16.24% |
| 19 | `COc1ccc(-n2ncc(C(C)NC3CCSCC3)c2C)cc1` (stereo unspecified) | 4.467% |
| 20 | `CN(C)C1CCCN(C(=O)NCc2ccccc2-n2cccn2)C1` (stereo unspecified) | 8.96% |
| 21 | `Cn1c(CN2CCCCC2)nnc1C1CCCN(c2ccncc2F)C1` (stereo unspecified) | 9.48% |
| 22 | `CC(c1ccccn1)N(C)Cc1cccc(C(=O)Nc2nccn2C)c1` (stereo unspecified) | 1.832% |
| 23 | `O=C1CCCc2occ(C(=O)N3CCCC(O)(CO)C3)c21` (stereo unspecified) | 1.064% |
| 24 | `CN(C)CC1(O)CCCN(C(=O)CCc2nc3cccnc3n2C)C1` (stereo unspecified) | 16.72% |
| 25 | `CCN(CC)c1ccc(NC(=O)NCC2CCOC2)cn1` (stereo unspecified) | -0.8065% |
| 26 | `Cc1cc(NC(=O)CNc2cccc(C(=O)N3CCCC(O)C3)c2)no1` (stereo unspecified) | 2.419% |
| 27 | `CCC1CN(CCC(=O)N(C)C)CCN1CCOC` (stereo unspecified) | 13.07% |
| 28 | `CC[C@@H](CO)Nc1cc(-c2cn[nH]c2)ncn1` | 3.641% |
| 29 | `COCCN(C)C(=O)Nc1cc2c(cc1SC)OCCO2` | 10.47% |
| 30 | `CCCn1cc(CN2CCCC2c2nccc(CN(C)C)n2)cn1` (stereo unspecified) | -4.167% |
| 31 | `Cc1cc2c(=O)n3c(nc2s1)CCN(C(=O)c1cnn(C)c1)CC3` | 18.77% |
| 32 | `CC(=O)N1C[C@@H]2CC[C@H](C1)N(S(=O)(=O)c1ccccc1Cl)C2` | 19.24% |
| 33 | `O=C(CCS(=O)(=O)C1CCCC1)N1CCC(O)(C(F)(F)F)C1` (stereo unspecified) | 10.03% |
| 34 | `COCC(=O)NC1CC2(CCN(Cc3ccco3)CC2)c2ccccc21` (stereo unspecified) | 14.48% |
| 35 | `Cn1cncc1-c1nnc([C@H]2CCN(C3CCOCC3)C2)o1` | 7.519% |
| 36 | `Cc1nsc(NC(=O)N2CCN(Cc3ccccc3F)C(=O)C2)n1` | 2.747% |
| 37 | `CCc1ccc(CN2CCC3(CC2)CC(N2CCN(C)CC2)CO3)cc1` (stereo unspecified) | 9.091% |
| 38 | `Cn1nccc1NC(=O)Cn1ccc(-c2ccc3c(c2)OCO3)n1` | 11.83% |
| 39 | `Cc1nn(C)c(Cl)c1C1CCCN1c1ncnc2[nH]ccc12` (stereo unspecified) | 9.42% |
| 40 | `CC(C)CC(=O)N1CC[C@@H]2CN(CC(=O)N(C)C)S(=O)(=O)[C@@H]2CC1` | 4.255% |
| 41 | `Cc1n[nH]c(C)c1Sc1ccccc1NC(=O)N1CCOCC1` | 20.14% |
| 42 | `CCCc1cc(C(=O)N2C[C@H](O)[C@@H](N3CCCC3)C2)ccn1` | 1.961% |
| 43 | `CCCc1n[nH]cc1C(=O)N1CCC(c2nccn2CCOC)CC1` | 5.185% |
| 44 | `COCCOc1ccc(NC(=O)C2CC(=O)N(CC3CC3)C2)cn1` (stereo unspecified) | 11.67% |
| 45 | `CC1(C)CC(N(Cc2ccccc2)Cc2cccnc2)CC(C)(C)N1` | 10.62% |
| 46 | `O=C(NCCCOCc1ccco1)c1cccnc1N1CCOCC1` | 7.902% |
| 47 | `CN1CC2(COCCN(c3ncccn3)C2)OCC1=O` (stereo unspecified) | 12.09% |
| 48 | `Cc1ccc(-n2nc(C)c3c2NC(=O)CC3c2cnc(N)s2)cc1` (stereo unspecified) | 22.19% |
| 49 | `Cc1oc(C)c(C(=O)NS(=O)(=O)c2ccc3c(c2)OCCCO3)c1C` | 1.344% |
| 50 | `Cc1nnc(C(C)Nc2cccc(COCC(F)(F)C(F)F)c2)o1` (stereo unspecified) | 4.676% |
| 51 | `CCCn1c(C)cc(C(=O)CN2C(=O)c3ccccc3CS2(=O)=O)c1C` | 14.86% |
| 52 | `Cc1ccc(CN2Cc3nnn(C)c3C(COCC3CC3)C2)o1` (stereo unspecified) | 11.29% |
| 53 | `CC(O)c1cn(C2CCN(C(=O)C3(C)CCCCC3)CC2)nn1` (stereo unspecified) | 9.045% |
| 54 | `Cc1csc(C(C)(C)NCCCS(C)(=O)=O)n1` | 13.97% |
| 55 | `Cc1cn2nc(N3CCCC3Cn3cccn3)sc2n1` (stereo unspecified) | 24.04% |
| 56 | `c1ccc(CN2CC[C@]3(C[C@@H](Oc4ccccn4)CO3)C2)nc1` | 1.045% |
| 57 | `COc1ccc(C(=O)C2CCCN(Cc3ccon3)C2)c(OC)c1` (stereo unspecified) | 5.81% |
| 58 | `O=C(NCCc1coc(-c2ccc(F)cc2)n1)NCC1CCOC1` (stereo unspecified) | 6.789% |
| 59 | `O=c1ccc2c(n1Cc1cccnc1)CCN(CC1CCOC1)CC2` (stereo unspecified) | 16.79% |
| 60 | `CC(=O)NCCC(=O)NC1(c2ccc(Cl)c(Cl)c2)CC1` | 7.246% |
| 61 | `CC(C)c1ncncc1C(=O)N1CCCN(Cc2ccccc2)CC1` | 16% |
| 62 | `CC(C)C(=O)N1CCCC2(CC(C(=O)NCc3cccnc3)=NO2)C1` (stereo unspecified) | 11.11% |
| 63 | `CCCC(NC(=O)c1ccccn1)c1nnc2ccccn12` (stereo unspecified) | 23.58% |
| 64 | `COc1ccccc1CN(C)Cc1ccnc(C2CCCO2)n1` (stereo unspecified) | 19.06% |
| 65 | `COCC1CN(Cc2ccc(OC)cc2)S(=O)(=O)c2cnccc2O1` (stereo unspecified) | 8.919% |
| 66 | `CCCn1cc(C(=O)NCCS(N)(=O)=O)c2ccccc21` | 3.562% |
| 67 | `Cc1ncsc1CN1C[C@@H]2CN(Cc3cccnc3)CCO[C@@H]2C1` | 9.424% |
| 68 | `CC1CCCN(CCNC(=O)c2ccn(-c3ccccc3)n2)C1` (stereo unspecified) | 12.55% |
| 69 | `CC(C)n1cnnc1CN(C)Cc1cnc(-c2ccccn2)nc1` | 5.301% |
| 70 | `O=S(=O)(C1CC1)N1CCC2(CN(c3ccccn3)C2)C1` | 12.89% |
| 71 | `O=C(Nc1nc2c(s1)CN(S(=O)(=O)C1CC1)CC2)Nc1ccccc1F` | 10.63% |

The first 5 entries again:

{"structure": "Cc1cnc(N2CCOC3(CCCN(c4ncccn4)C3)C2)nc1", "stereo": "stereo unspecified", "Inhibition": 8.711}
{"structure": "Cc1noc(CCNC(=O)NCc2ccc(OC3CCCC3)cc2)n1", "Inhibition": -0.361}
{"structure": "Cc1ccc(C(=O)N2CC(C)(C)[C@@](C)(O)C2)cc1N1CCNC1=O", "Inhibition": 16.2}
{"structure": "COCc1nc(C(=O)N2CCCCC2Cn2cccn2)cs1", "stereo": "stereo unspecified", "Inhibition": 5.512}
{"structure": "CN(C)C(=O)c1n[nH]c2c1CN(Cc1nccs1)CC2", "Inhibition": 1.031}